Results: paper PMC7281231

Molecular target: ORF3 with deleted N terminus (lacking amino acids 1-73), Myc-tagged (ΔN-ORF3-Myc) (porcine epidemic diarrhea virus (PEDV))
Test: co-IP; HEK293T cells co-transfected with the two plasmids, lysed at 24 hpt in IP lysis buffer; cleared lysates with anti-Myc agarose overnight at 4 °C; washed with TBST (25 mM Tris-HCl, 0.15 M NaCl, 0.05% tween 20, pH 7.2); blots with anti-Flag, anti-HA and anti-Myc

B1: inhibitor of nuclear factor kappa-B kinase subunit beta with Flag-tag at the C-terminus (IKBKB-Flag) (enzyme, UniProt O14920 1-756)
chain: MSWSPSLTTQTCGAWEMKERLGTGGFGNVIRWHNQETGEQIAIKQCRQELSPRNRERWCLEIQIMRRLTHPNVVAARDVPEGMQNLAPNDLPLLAMEYCQGGDLRKYLNQFENCCGLREGAILTLLSDIASALRYLHENRIIHRDLKPENIVLQQGEQRLIHKIIDLGYAKELDQGSLCTSFVGTLQYLAPELLEQQKYTVTVDYWSFGTLAFECITGFRPFLPNWQPVQWHSKVRQKSEVDIVVSEDLNGTVKFSSSLPYPNNLNSVLAERLEKWLQLMLMWHPRQRGTDPTYGPNGCFKALDDILNLKLVHILNMVTGTIHTYPVTEDESLQSLKARIQQDTGIPEEDQELLQEAGLALIPDKPATQCISDGKLNEGHTLDMDLVFLFDNSKITYETQISPRPQPESVSCILQEPKRNLAFFQLRKVWGQVWHSIQTLKEDCNRLQQGQRAAMMNLLRNNSCLSKMKNSMASMSQQLKAKLDFFKTSIQIDLEKYSEQTEFGITSDKLLLAWREMEQAVELCGRENEVKLLVERMMALQTDIVDLQRSPMGRKQGGTLDDLEEQARELYRRLREKPRDQRTEGDSQEMVRLLLQAIQSFEKKVRVIYTQLSKTVVCKQKALELLPKVEEVVSLMNEDEKTVVRLQEKRQKELWNLLKIACSKVRGPVSGSPDSMNASRLSQPGQLMSQPSTASNSLPEPAKKSEELVAEAHNLCTLLENAIQDTVREQDQSFTALDWSWLQTEEEEHSCLEQAS
- binding: binds

Results are given in words; binding and its absence hold for the method and conditions named. In cells and extracts the contact can be indirect. Binding calls can cover weak binding; strength is not graded here. Where a sequence is shown, tags or fusion partners need not be part of it.
